pIC50: −log10 of the molar value. Some entries share one result that the patent states for a list of compounds. At least one compound was matched to its structure with a doubt left.
What was measured:
Type in all cases: cell-based
[1] = test system: cancer cell lines (A549, CEM, MCF-7, MIA PaCa-2, PC-3); assay: MTT cytotoxicity assay, several cancer cell lines together; details: for pIC50: A549, CEM, MIA PaCa-2 and PC-3; for antiproliferative activity, comparison in words: across cell lines of Table 3
Method: CEM (lymphoma), A549 (lung), PC-3 (prostate), MIA PaCa-2 (pancreatic), MCF-7 and MDA-MB-231 (breast) cancer cells were purchased from ATCC. PC3, A549, MDA-MB-231 and CEM were cultured in RPMI-1640 medium supplemented with 10% Fetal Bovine Serum (FBS) and 1% penicillin/streptomycin. MIA PaCa-2 and MCF-7 cells were cultured in DMEM supplemented with 10% FBS and 1% penicillin/streptomycin. Primary human dermal fibroblasts (HDF) from the dermis of normal human neonatal foreskin were obtained from the Dermatology Department, Emory University. MTT dye (Thiazolyl Blue Tetrazolium Bromide) dimethyl sulfoxide (DMSO), propidium iodide and RNase were purchased from Sigma (St. Louis, Mo.). Cells were cultured at 37° C. with 5% CO2.
MTT (3-(4,5-dimethylthiazol-2-yl)-2,5-diphenyltetrazolium bromide) assay was employed to evaluate the proliferative capacity of cells. Essentially, MTT is a colorimetric assay, which utilizes the […] tetrazolium dye and converts it into a colored formazan salt, which can be quantified by measuring absorbance at 570 nm. Briefly, a 96-well format was used to seed […] medium containing cells at a density of 5×10^3 cellsper well. After 24 h of incubation, cells were treated with gradient concentration of the test compounds, which were dissolved in DMSO. The final concentration of DMSO in the culture medium was maintained at 0.1%. After 48 h of drug incubation, the spent medium was removed and the wells were washed twice with PBS. 100 μl of fresh medium and 10 μl of MTT (5 mg/ml in PBS) was added to the wells and cells were incubated at 37° C. in dark for 4 h. The formazan product was dissolved by adding 100 μl of 100% DMSO after removing the medium from each well. The absorbance was measured at 570 nm using a Spectra Max Plus multi-well plate reader (Molecular Devices, USA).

[2] = test system: caspase-3 and caspase-7 in PC-3 cells; assay: Caspase 3/7 activity assay; details: 25 μM
[3] = test system: normal human dermal fibroblasts (HDFs); assay: Cell proliferation in normal human dermal fibroblasts; details: concentrations as high as 100 μM
PC-3 cells = assay: Apoptosis in PC-3 cells, immunoblot analysis
MDA-MB-231 cells = assay: Cell-cycle analysis by flow cytometry; details: 25 μM, 12 and 24 h
Method: Flow-cytometric evaluation of the cell-cycle status was performed as described previously. Control and drug treated cells were centrifuged, washed with ice-cold PBS, and fixed in 70% ethanol. Tubes containing the cell pellets were stored at 4° C. for at least 24 h. Cells were then centrifuged at 1000 g for 10 min and the supernatant was discarded. The pellets were washed twice with 5 ml of PBS and then stained with 0.5 ml of propidium iodide (0.1% in 0.6% Triton-X in PBS) and 0.5 ml of RNase A (2 mg/ml) for 45 min in dark. Samples were then analyzed on a BD FACSCanto II flow-cytometer (BD Biosciences, Sparks, Md.).
To gain further insights into the precise mechanisms responsible for inhibition of cellular proliferation, we next examined the effect of benzofuranone ring substituted analogs on cell cycle distribution profiles of breast cancer MDA-MB-231 cells. The effect of compounds 3-7 on mitotic index (percent G2/M cells) and apoptotic index (percent sub-G1 cells) as a function of time in MDA-MB-231 cells was studied using fluorescence activated cell sorting (FACS) analysis. All 5 compounds were used at 25 μM concentration over 48 h of treatment.
Although staining of DNA with propidium iodide is extremely useful to determine the percent cell population in various cell-cycle phases, it has its limitations. For example, it cannot dissect out the differences between G2 and M phases as both have 4N DNA amounts. Thus, to explore further, a mitosis specific marker, MPM-2, was used to distinctly identify which phase the cells were in.

SMILES | pIC50 [1] | antiproliferative activity, comparison in words ([1]; listed as compound 3) | caspase-3 activity [2] | inhibition of cell proliferation / viability of normal human fibroblasts [3] | cleavage of PARP (PC-3 cells) | G2/M population up to 24 h (MDA-MB-231 cells; listed as compound 3) | G2/M population up to 24 h (MDA-MB-231 cells) | antiproliferative activity, comparison in words [1] | G2/M population up to 24 h (MDA-MB-231 cells; listed as compound 5)
COc1ccc2c(c1OC(C)=O)C(=O)O[C@@H]2[C@H]1c2c(cc3c(c2OC)OCO3)CCN1C [Compound 3, (S)-5-methoxy-1-(R)-4-methoxy-6-methyl-5,6,7,8-tetrahydro-[1,3]dioxolo[4,5-g]isoquinolin-5-yl)-3-oxo-1,3-dihydroisobenzofuran-4-yl acetate] | ≥ 5.00 | significantly better in antiproliferative activity | enhanced caspase-3 activity | did not inhibit cell proliferation | cleavage of PARP | significant accumulation of cells in G2/M phase | – | – | –
COc1ccc2c(c1OC(=O)Nc1ccccc1)C(=O)O[C@@H]2[C@H]1c2c(cc3c(c2OC)OCO3)CCN1C [Compound 6, (S)-5-methoxy-1-0)-4-methoxy-6-methyl-5,6,7,8-tetrahydro-[1,3]dioxolo[4,5-g]isoquinolin-5-yl)-3-oxo-1,3-dihydroisobenzofuran-4-yl phenylcarbamate] | – | – | enhanced caspase-3 activity | did not inhibit cell proliferation | cleavage of PARP | – | significant accumulation of cells in G2/M phase | – | –
COc1ccc2c(c1OC(=O)c1ccccc1)C(=O)O[C@@H]2[C@H]1c2c(cc3c(c2OC)OCO3)CCN1C [Compound 4, (S)-5-methoxy-1-(R)-4-methoxy-6-methyl-5,6,7,8-tetrahydro-[1,3]dioxolo[4,5-g]isoquinolin-5-yl)-3-oxo-1,3-dihydroisobenzofuran-4-yl benzoate] | ≥ 5.00 | – | enhanced caspase-3 activity | did not inhibit cell proliferation | cleavage of PARP | – | significant accumulation of cells in G2/M phase | significantly better in antiproliferative activity | –
CCNC(=O)Oc1c(OC)ccc2c1C(=O)O[C@@H]2[C@H]1c2c(cc3c(c2OC)OCO3)CCN1C [Compound 5] | ≥ 5.00 | – | enhanced caspase-3 activity | did not inhibit cell proliferation | cleavage of PARP | – | – | significantly better in antiproliferative activity | significant accumulation of cells in G2/M phase

Reference: US20140121233A1, “Synthesis and Characterization of Second Generation Benzofuranone Ring Substituted Noscapine Analogs” (GEORGIA STATE UNIVERSITY RESEARCH FOUNDATION, INC., priority 2011, published 2014)
